Experimental data as given in paper PMC3313078.
Results are given in words; binding and its absence hold for the method and conditions named. Binding seen in cells or lysates may run through a third protein. Binding can be weak; no strength is given. Sequences can lack the tags named with a protein.

Molecular target: His-SscB (chaperone for SseF)
Assay: pull-down; SseF-M45 co-expressed with SscB, His-SscB pulled down (preparative enrichment of SseF-M45)

B1: SseF-M45 (full-length SseF with M45 tag) (protein, UniProt O84951 1-260)
chain: MKIHIPSAASNIVDGNSPPSDIQAKEVSFPPPEIPAPGTPAAPVLLTPEQIRQQRDYAIHFMQYTIRALGATVVFGLSVAAAVISGGAGLPIAILAGAALVIAIGDACCAYHNYQSICQQKEPLQTASDSVALVVSALALKCGASLNCANTLANCLSLLIRSGIAISMLVLPLQFPLPAAENIAASLDMGSVITSVSLTAIGAVLDYCLARPSGDDQENSVDELHADPSVLLAEQMAALCQSATTPALMDSSDHTSRGEP
binding: binds
